Among the data in PubChem BioAssay AID1307 (SRMLSC, 2008) are max inhibition values, retold here.

The whole screen tested about 1,200 compounds, of which fewer than 10 were called active.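 Rule for the calls: active = inhibition reaching a set limit at one or more tested concentrations; inactive = inhibition under that limit at every dose.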 This is one part of the list. Results with a measured potency or affinity are listed apart.

A short description of the experiment: yeast RAM network inhibitors, dose response, S. cerevisiae (AID 1307).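 Note: 0% = DMSO vehicle wells and 100% = 10 µM 1-NA-PP1 control; higher inhibition means more yeast growth since RAM block rescues cells from 5-FOA.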 Conditions: S. cerevisiae RAM network URA3 reporter, 5-FOA growth OD615, active compounds read high, yeast express analog-sensitive mutant Cbk1 kinase; at 100 µM unless noted.
With `CCOP(=O)(OCC)C(Nc1cccc(C(F)(F)F)c1)c1ccc(Br)cc1` (centres undefined), the max inhibition is inactive: -0.48% [at 25 µM].

On to `Cn1c(N=Nc2ccc(N3CCOCC3)cc2)[n+](C)c2ccccc21`, for which the max inhibition is inactive: 25%.

For the molecule `O=C(Nc1cc(Sc2ccccn2)cc([N+](=O)[O-])c1)c1cccc(Cl)c1`, the max inhibition was inactive: 2.43% [at 50 µM].

`COc1nc(-c2ccccc2)ccc1-c1noc(COc2ccccc2)n1`: the max inhibition was inactive: 5.72% [at 50 µM].

Turning to `CCC(Oc1ccc2c(=O)c(-c3ccccc3OC)coc2c1)C(=O)OCc1ccccc1` (centres undefined), the max inhibition was inactive: 5.06%.

`CCCCn1c(-c2cccs2)nc2nc3ccccc3nc21`: the max inhibition was inactive: 4.04% [at 1.563 µM].

As to `Cc1ccc(C(=O)C(OC(=O)CCC(=O)Nc2cccc(C)c2)c2ccccc2)cc1` (centres undefined), the max inhibition is inactive: 5.19%.

`CCCNC(=O)c1ccccc1NC(=O)c1ccc(CSc2ccccc2)cc1`: the max inhibition is inactive: 5.46% [at 50 µM].

Consider `CCN(CC)S(=O)(=O)c1cccc(-c2nnc(SCCOc3ccccc3C)o2)c1`, for which the max inhibition is inactive: 2.73% [at 25 µM].

With `CC(=C\c1ccccc1)/C=C1/SC(=S)N(C(C(=O)O)C(C)C)C1=O` (centres undefined), the max inhibition was inactive: 4.56% [at 50 µM].

For `COc1cc(/C=N/OCC(=O)NC23CC4CC(CC(C4)C2)C3)ccc1OCc1ccccc1`, the max inhibition is inactive: 2.77%.

Consider `Fc1ccc(CSc2nnc(-c3cc4c(s3)-c3ccccc3CC4)o2)cc1`, for which the max inhibition is inactive: 3.84% [at 25 µM].

Turning to `CC1CCCC(NC(=O)COC(=O)CSc2ccc3ccccc3c2)C1C` (centres undefined), the max inhibition is inactive: 2.5% [at 6.25 µM].

Consider `COCCN1C(=O)/C(=C/c2ccc(N3CCCC3)cc2C)SC1=S`, for which the max inhibition is inactive: 2.82%.

In the case of `O=C(CSCc1ccc(Cl)cc1)Nc1cccc(C(=O)Nc2ccccc2C(=O)O)c1`, the max inhibition was inactive: 1.32% [at 0.196 µM].

Take `COc1cccc(N/C(SCc2cccc([N+](=O)[O-])c2)=C(/C#N)C(=O)NCc2cccs2)c1`: the max inhibition was inactive: 2.89%.

Take `O=C(COC(=O)CNS(=O)(=O)c1cccc(Br)c1)Nc1ccccc1Sc1ccccc1`: the max inhibition was inactive: 1.5% [at 1.563 µM].

Turning to `CCCCSC1=N/C(=C/c2ccsc2)C(=O)N1c1ccccc1`, the max inhibition was inactive: 4.01%.

In the case of `O=C(Nc1ccn(Cc2ccccc2F)n1)c1ccc(COc2ccc(Br)cc2)cc1`, the max inhibition was inactive: 3.47% [at 3.125 µM].

Take `CCOC(=O)c1c(NC(=S)Nc2ccc(OC)cc2)sc2c1CCCCC2`: the max inhibition is inactive: 3.37% [at 1.563 µM].

Turning to `Cc1cccc(C(=O)Nc2cccc(OC(=O)c3cccc(C)c3)c2)c1`, the max inhibition is inactive: 7.03%.

For `CN(C(=O)COC(=O)c1sc2ccccc2c1Cl)C1CCCCC1`, the max inhibition is inactive: 2.53% [at 0.782 µM].

Regarding `CCOC(=O)c1c(NC(=O)CN2CCCc3ccccc32)sc(C)c1CC`, the max inhibition was inactive: 3.9%.

For `COc1ccccc1NC(=O)C(Sc1ccccc1)c1ccccc1` (centres undefined), the max inhibition is inactive: 2.18% [at 50 µM].

Consider `Cc1ccc(N/N=C/c2c(C)c(C#N)c(=O)n(C)c2O)cc1C`, for which the max inhibition was inactive: 2.33% [at 0.782 µM].

For `N#Cc1c(N)n(CCOC(=O)c2cccc([N+](=O)[O-])c2)c2nc3ccccc3nc12`, the max inhibition is inactive: 12.7%.

For the molecule `CCCCc1ccc(-c2csc(/C(C#N)=C\c3ccco3)n2)cc1`, the max inhibition was inactive: 6.19% [at 50 µM].

Turning to `CCN(c1ccccc1)S(=O)(=O)c1ccc(Cl)c(C(=O)NCCc2ccc(OC)cc2)c1`, the max inhibition is inactive: 2.41% [at 0.782 µM].

In the case of `C=C(C)CNC(=S)Nc1nc2c(cc1C(=O)OCC)CCCC2`, the max inhibition is inactive: 2.44% [at 25 µM].

On to `CN(Cc1cc(-c2ccccc2)on1)C(=O)c1cc(COc2c(F)cccc2F)on1`, for which the max inhibition is inactive: 2.21% [at 1.563 µM].

As to `COc1ccc(C(=O)CSc2nc(C(C)(C)C)nc3ccccc23)cc1`, the max inhibition was inactive: 2.25% [at 1.563 µM].

Turning to `CCCCN(CCCC)c1nc2ccccc2nc1C(C#N)C(=O)NCCCOC` (centres undefined), the max inhibition was inactive: 3.86%.

Turning to `CCCn1c2c(c(O)c(C(=O)Nc3ccccc3)c1=O)CCCC2`, the max inhibition is inactive: 2.68% [at 50 µM].

Regarding `O=c1c2ccccc2nc(SCc2cccc(F)c2)n1-c1cccc(S(=O)(=O)N2CCCC2)c1`, the max inhibition is inactive: 3.66%.

As to `COc1ccc(C(=O)/C=C/C(=O)N(CC(=O)NCCC(C)C)Cc2cccs2)c(O)c1`, the max inhibition was inactive: 5.31%.

For `COc1ccc(NC(=O)C23CC4CC(C2)CC(c2ccccc2)(C4)C3)c(OC)c1`, the max inhibition is inactive: 4.13%.

Take `C=CCn1cccc(/C=C/C(=O)c2ccc(C(C)(C)C)cc2)c1=S`: the max inhibition was inactive: 7.29%.

Take `COc1cccc(N/C(SCc2ccccc2F)=C(/C#N)C(=O)NCc2cccs2)c1`: the max inhibition is inactive: 5.29%.

With `O=C(COC(=O)CCc1c[nH]c2ccccc12)NC(c1ccccc1)c1ccccc1`, the max inhibition was inactive: 2.92% [at 50 µM].

Consider `C=CCn1c(SCc2cc(=O)n3ccsc3n2)nc2ccccc2c1=O`, for which the max inhibition is inactive: 7.32%.

In the case of `COc1ccc(C(=O)/C=C/c2ccc(O)cc2)c(O)c1CC=C(C)C`, the max inhibition was inactive: 2.58%.

Turning to `CCOC(=O)c1sc(-c2ccc(OC)cc2)cc1NC(C)=O`, the max inhibition is inactive: 2.72%.

In the case of `CCc1sc(C(=O)Nc2cc(Cl)ccc2N2CCCCC2)cc1C`, the max inhibition was inactive: 3.88% [at 50 µM].

On to `Cc1cc(C)c(OC2(c3ccccc3)OC(=O)c3ccccc32)c(C)c1` (centres undefined), for which the max inhibition was inactive: 3.41%.

Consider `CCOC(=O)/C(=N/Nc1ccc(C)cc1)S(=O)(=O)c1ccc(Cl)cc1`, for which the max inhibition is inactive: 1.64% [at 0.782 µM].

`CSCSC1=C(C#N)C(c2ccc(Cl)cc2)C(C(C)=O)=C(C)N1` (centres undefined): the max inhibition was inactive: 2.59%.

`CCCCC1(Cc2cccc([N+](=O)[O-])c2)C(=O)N(c2ccccc2)N(c2ccccc2)C1=O`: the max inhibition was inactive: 4.01% [at 50 µM].

In the case of `O=C(/C=C/c1ccc(-c2ccccc2)o1)c1ccccc1`, the max inhibition is inactive: 5.06%.

For `O=C(OCC#CCSc1nnc(-c2cccc3ccccc23)o1)c1cccs1`, the max inhibition was inactive: 1.43% [at 25 µM].

Consider `COc1ccc(-c2nc3ccccc3c(=O)n2CCOc2cc(C)ccc2C)cc1`, for which the max inhibition was inactive: 4.64% [at 25 µM].

Turning to `CCCOc1cccc(C(=O)NC(=S)Nc2cccc(C(F)(F)F)c2)c1`, the max inhibition was inactive: 3.9%.

`O=C(COC(=O)CCCNC(=O)c1ccc(Cl)cc1)Nc1cc(Cl)c(Cl)cc1Cl`: the max inhibition is inactive: 3.97% [at 50 µM].

For the molecule `COc1ccc2c(c1)CCc1c(C(=O)NCCc3ccc(OC)c(OC)c3)noc1-2`, the max inhibition is inactive: 8.66%.

`Cc1oc2ccc(OC(=O)c3cccs3)cc2c1C(=O)OC(C)C`: the max inhibition was inactive: 2.38% [at 6.25 µM].

For `O=C(CNS(=O)(=O)c1c(Cl)cccc1Cl)OCc1csc(-c2ccccc2)n1`, the max inhibition was inactive: 2.5% [at 25 µM].

Consider `O=C(CSc1nnc(Cc2cccs2)n1Cc1ccco1)Nc1cc(Cl)cc(Cl)c1`, for which the max inhibition is inactive: 1.96% [at 12.5 µM].

With `COc1ccc(CNc2oc(COc3ccc(Cl)cc3)nc2C#N)cc1`, the max inhibition is inactive: 3.84% [at 25 µM].

`COC(=O)[C@@H]1CC[C@H](C)[C@@H](c2ccc(C)cc2)N1C(=O)c1ccc(/C=N/OC[C@@H](O)COCc2ccco2)cc1`: the max inhibition was inactive: 2.31% [at 0.391 µM].

Turning to `COc1ccccc1OC(=O)CCN1c2ccccc2Sc2ccccc21`, the max inhibition was inactive: 4.59%.

Turning to `N#CC(Nc1ccccc1)c1ccccc1OCc1ccccc1` (centres undefined), the max inhibition was inactive: 1.53% [at 0.391 µM].

For `COc1ccc(-c2nc3ccccc3c(=O)n2CCOc2c(C)cccc2C)cc1`, the max inhibition was inactive: 4.92%.

For `O=C(COC(=O)CC(c1ccccc1)c1ccccc1)Nc1ccc(F)c(F)c1`, the max inhibition was inactive: 1.55% [at 25 µM].

Turning to `O=C(CCC1CCCCC1)Nc1ccccc1-c1ccccc1`, the max inhibition is inactive: 5.76%.

For the molecule `CCNC(=O)CSc1nnc(-c2ccccc2Br)n1-c1cccc(C(F)(F)F)c1`, the max inhibition was inactive: 4.29% [at 6.25 µM].

On to `CCOC(=O)c1cc(-c2ccccc2)sc1NC(=O)C(C)OC(=O)c1cccnc1OCC` (centres undefined), for which the max inhibition was inactive: 7.09% [at 25 µM].

Turning to `CC(C)CC(=O)NC(=S)Nc1nc(-c2ccccc2)cs1`, the max inhibition was inactive: 2.96% [at 1.563 µM].

Turning to `CCOC(=O)C(C)(C)N(Cc1cccc(C)c1)S(=O)(=O)c1cccc([N+](=O)[O-])c1`, the max inhibition is inactive: 2.41% [at 50 µM].

Turning to `CC1(C)CC(=O)C2=C(C1)c1c(ccc3ccccc13)NC2c1ccco1` (centres undefined), the max inhibition is inactive: 2.09% [at 25 µM].

With `CCOC(=O)c1c(-c2cccc([N+](=O)[O-])c2)csc1NC(=O)CCCOc1ccccc1OC`, the max inhibition was inactive: 2.67% [at 50 µM].

`CCCCCCN(C(=O)CCCCCN1C(=O)NC(c2ccc(-c3ccccc3)cc2)C(C(=O)OCc2ccccc2)=C1C)C(C(=O)NCCCC)c1ccc(OCC(=O)OC)cc1` (centres undefined): the max inhibition is inactive: 8.74%.

Take `CCN(CC)S(=O)(=O)c1cc(NS(=O)(=O)c2c(Cl)cccc2Cl)ccc1C`: the max inhibition was inactive: 3.03% [at 50 µM].

As to `CCCCC(=O)Nc1cccc(-c2csc(-c3ccccc3)n2)c1`, the max inhibition is inactive: 4.92%.

On to `CCCCCCOC(=O)C(C#N)c1nc2ccccc2nc1N1CCCCC1` (centres undefined), for which the max inhibition was inactive: 10%.

Turning to `Cc1noc(C)c1COc1cccc(C(=O)Nc2ccc(OCc3ccccc3)cc2)c1`, the max inhibition was inactive: 6.94%.

As for `C=CCn1c(SCC(=O)/C(C#N)=C(\C)N)nc2sc(CC)cc2c1=O`, the max inhibition was inactive: 19.3%.

Consider `O=C(OCc1ccccc1)C1=[N+]([O-])OC(C(=O)OCc2ccccc2)C1c1c[nH]c2ccccc12` (centres undefined), for which the max inhibition was inactive: 3.54%.

For `COc1cccc(-c2ccc(C#N)c(OC(=O)c3c(Cl)cccc3Cl)n2)c1`, the max inhibition is inactive: 3.76%.

Take `CC(C)OCCCNC(=O)c1c(N)n(/N=C/c2ccccn2)c2nc3ccccc3nc12`: the max inhibition is inactive: 12.1%.

In the case of `O=C(/C=C/c1ccc2c(c1)OCO2)NCCSCc1ccc(Cl)cc1Cl`, the max inhibition was inactive: 1.8% [at 3.125 µM].
